From patent publication US9012493B2, “1-heterodiene derivative and pest control agent” (Nippon Soda Co., Ltd., priority 2009, dated 2015)
Some of these results come from one statement about several compounds together.

Legend:
Type in all cases: in vivo
[1] = test system: House Fly (Musca Domestica); assay: Efficacy test against house fly, sugar water on absorbent cotton; settings: 125 ppm in 10% sugar water, female adults, after 3 days
[2] = test system: German Cockroach (Blattella Germanica); assay: Efficacy test against German cockroach, treated artificial diet (Test Example 6-1); settings: 2,000 ppm acetone solution, 250 μL on 0.5 g artificial diet for rat, first instar larvae, after 5 days
[3] = test system: Autogenic House Mosquito (Culex Pipiens Molestus Forskal); assay: Efficacy test against autogenic house mosquito larvae, 96-well microplate; settings: final concentration of the compound 0.001%, larvae 1 day after hatching, after 2 days, 25° C.

Row | Structure (SMILES) | insecticidal rate [1] [%] | insecticidal rate [2] [%] | insecticidal rate [3] [%]
1 | C=C1SC(=Nc2c(C)cccc2C)C(=CSc2ccccc2)CC1(C)C [Compound 2-62] | ≥ 80 | ≥ 80 | ≥ 90
2 | C=C1SC(=Nc2c(C)cc(C)cc2C)C(=CSc2ccccc2)CC1(C)C [Compound 2-63] | ≥ 80 | ≥ 80 | ≥ 90
3 | C=C1SC(=Nc2c(C)cc(C)cc2C)C(=CSc2cccs2)CC1(C)C [Compound 2-66] | ≥ 80 | ≥ 80 | ≥ 90
4 | C=C1SC(=Nc2ccc(C)cc2)C(=CSc2cccc(Cl)n2)CC1(C)C [Compound 2-91] | ≥ 80 | ≥ 80 | ≥ 90
5 | C=C1SC(=Nc2ccc(C)cc2)C(=CSc2ccoc2C)CC1(C)C [Compound 2-93] | ≥ 80 | ≥ 80 | ≥ 90
